Results from PubChem BioAssay AID651664 (NMMLSC, 2012).
Fewer than 10 of roughly 1,800 compounds were called active.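 How the source made its calls: active means inhibition of granule release above a set limit; inactive means the rest.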 Some of the results follow.

Assay: LAMP-1 surface externalization blockers in TALL-104 cells – cell-based, flow cytometry, validation set (AID 651664)
Conditions: TALL-104 LAMP-1 externalization, at 15.2 µM, hits give high values, stimulated with thapsigargin and PMA

SMILES	inhibition
COC(=O)Cn1ncn2c(cc3oc(C)cc32)c1=O	inactive: -1.5%
CCC(Sc1nnnn1C)C(=O)Nc1ccc(C(C)=O)cc1 (stereo not given)	inactive: 2.8%
CCCNC(=O)CN(C1CCCCC1)S(C)(=O)=O	inactive: 2.1%
Cc1nc2ccc(F)cc2cc1C(=O)NCC1CCCO1 (stereo not given)	inactive: -2.9%
C/C=C(\C)CN1CCN(c2ccc(C)cc2)CC1	inactive: -1.7%
O=c1cc(CN2CCN(c3cccc(Cl)c3)CC2)c2cc(O)c(-c3ccccc3)cc2o1	inactive: 1.5%
Cc1ccc(CCN2CC(C(=O)NC3CCCC3)CC2=O)cc1 (stereo not given)	inactive: 0.7%
COc1ccccc1C(=O)Nc1nc2nc(-c3ccccc3)cc(=O)n2[nH]1	inactive: 0.2%
Cc1cc2c(cc1C)NC(c1nc3ccccc3[nH]1)C1=C(CC(C)(C)CC1=O)N2 (stereo not given)	inactive: -3.1%
CN(Cc1ccccc1)C(=O)C1CCCN(Cc2ccc(Cl)cc2)C1 (stereo not given)	inactive: -1.9%
CCOC(=O)CSc1ncnc2c1sc1nc(N3CCOCC3)c3c(c12)CCCC3	inactive: 0.1%
COc1ccc(OC)c(C(=O)c2coc3ccc(OC)cc23)c1	inactive: -3.2%
Cn1c(NN)nc2sc3c(c2c1=O)CCC3	inactive: 1.1%
COn1c(SCC(N)=O)nc2ccccc2c1=O	inactive: -1.7%
COc1ccc(-c2csc3nc(C)n(-n4cccc4)c(=O)c23)cc1	inactive: -0.7%
Cc1ccc2c(c1)cc1c(=O)[nH]ncn12	inactive: -2.8%
Cc1cccc(C)c1NC(=O)N1CCC(N2CCCCC2)CC1	inactive: 9%
COc1ccc(/C=C/C(=O)Oc2ccc(/C=N/NC(=O)COc3c(C)cccc3C)cc2)cc1	inactive: -1.2%
O=C(NCc1ccc2c(c1)OCO2)c1ccc2snnc2c1	inactive: -0.7%
CCOC(=O)c1nnc2cc(-c3ccc(Br)cc3)nn2c1C	inactive: 0%
O=C(COc1ccc(Cl)cc1)NCCCn1ccnc1	inactive: 2%
COc1ccc(C2CC(c3c(-c4ccccc4)c4cc(Cl)ccc4[nH]c3=O)=NN2S(C)(=O)=O)cc1 (stereo not given)	inactive: 5.3%

SMILES	inhibition
COc1ccc(Nc2nc(C)cc(C)c2C(N)=O)cc1	inactive: 1.3%
O=C(COc1ccc(F)cc1)c1ccc2c(c1)CCCC2	inactive: -2.8%
CCn1c(N)c(C(=O)NCCOC)sc1=S	inactive: 0%
O=C(CSc1nc2ccccc2[nH]1)N1CCN(S(=O)(=O)c2ccc(Cl)cc2)CC1	inactive: -3.2%
Cc1ccc(-n2nnnc2Sc2nc([N+](=O)[O-])nn2C)c(C)c1	inactive: -2.7%
NS(=O)(=O)c1ccc(N2N=C(c3ccccc3)CC2c2ccc(F)cc2)cc1 (stereo not given)	inactive: -1.9%
C1=C(c2ccccc2)Nc2nnnn2C1c1cccs1 (stereo not given)	inactive: 0.7%
CCOC(=O)C1=C(C)OC(N)=C(C#N)C1C1CCCCC1 (stereo not given)	inactive: -2.6%
Cc1ccc(CSc2nc3c(c(N(C)C)n2)CCCC3)cc1	inactive: -0.6%
Cc1ccc2c(c1)C(CCN)C(=O)N2Cc1ccccc1 (stereo not given)	inactive: -0.2%
CN(c1ccc(OCC(=O)N2CCCCC2)cc1)S(=O)(=O)c1cccs1	inactive: -6.7%
c1ccc(-c2cc(-c3nc(-c4ccccn4)no3)c3ccccc3n2)cc1	inactive: -0.3%
CN(C)c1nc(-c2ccccc2)cc(C(F)(F)F)c1C#N	inactive: -1.3%
O=C(Cc1sc(-c2ccccc2Cl)nc1-c1ccccc1)Nc1ccc(F)cc1	inactive: 0.8%
CCOC(=O)c1nnn(-c2nonc2N)c1-c1ccc(C)cc1	inactive: -2.2%
COc1ccc(OC)c(NC(=O)C2CC(=O)N(c3ccc(Br)cc3)C2)c1 (stereo not given)	inactive: -1.1%
CC(C)(C)c1ccc(C(=O)NCCC(=O)N2CCN(c3ncccn3)CC2)cc1	inactive: -3.2%
CCCCN(CCCC)CP(=O)(c1ccccc1)c1ccccc1	inactive: 0%
COc1ccccc1N1CCN(C(=O)Cn2nc(C(F)(F)F)c3c2CCC3)CC1	inactive: 0.7%
C1CCc2nnc(-c3nnc4n3CCCCC4)n2CC1	inactive: -1%
Cc1cc(N)ccc1N1CCCC1	inactive: -0.1%
C=C(C)COc1ccc(-c2n[nH]c(C)c2-c2ccc(OC)cc2)c(O)c1	inactive: 0.8%

SMILES	inhibition
S=c1[nH]c2ccc(Cl)cc2[nH]1	inactive: -3.8%
O=C(/C=C/Nc1ccc(F)cc1)c1cccs1	inactive: -0.8%
CC1(C)CC(c2csc(N)n2)CCO1 (stereo not given)	inactive: 0%
CC1=C(C(=O)Nc2ccccc2)C(c2ccncc2)C(C#N)=C(SCC(=O)NC2CC2)N1 (stereo not given)	inactive: -0.7%
O=C(Nc1cnc2ccccc2c1)C1COc2ccccc2O1 (stereo not given)	inactive: 2.9%
N#Cc1nc(-c2ccco2)oc1NCc1ccc(F)cc1	inactive: -0.7%
COc1ccc2[nH]cc(C(=O)CN3CCCCC3)c2c1	inactive: -0.8%
Cc1ccc(S(=O)(=O)NCc2ccncc2)cc1	inactive: 1.6%
COc1ccc2nc(NC(=O)Cc3cccs3)sc2c1	inactive: 3.6%
CC(C)(C)c1csc(NC(=O)c2ccc3nccnc3c2)n1	inactive: 0.8%
O=C(NCCc1ccc(Cl)cc1)C1CCN(C(=O)c2sccc2-n2cccc2)CC1	inactive: 0.4%
CCNc1nc(OCCNS(=O)(=O)c2cc(C)ccc2C)nc(N(C)C)n1	inactive: 4.8%
Cc1cccc(/C(N)=N/OC(=O)CCCN2C(=O)c3ccccc3C2=O)c1	inactive: 1.9%
O=C(COC(=O)c1cccs1)c1ccccc1	inactive: -2.8%
O=C(NCC1CCCO1)/C(=C\c1ccco1)NC(=O)c1ccccc1 (stereo not given)	inactive: -2.2%
CN(C)CCCNC1=CC(=O)OC12CCCCC2	inactive: 7.3%
COc1ccccc1N(C(=O)c1ccco1)C(C(=O)NC1CCCC1)c1cccnc1 (stereo not given)	inactive: -0.8%
COc1ccc(OC)c(C2C(C#N)=C(N)Oc3cc(C)[nH]c(=O)c32)c1 (stereo not given)	inactive: 0.1%
COc1ccc(N/N=C(/C#N)S(=O)(=O)c2nsc(C)c2C#N)cc1	inactive: 0.9%
COc1cccc(C2C(C#N)=C(N)OC(C(C)(C)C)=C2C#N)c1 (stereo not given)	inactive: 1.2%
CCCCN1CC(C(=O)NC2CCCCC2)CC1=O (stereo not given)	inactive: -0.7%
